Measured values taken from article doi:10.1101/2022.10.01.510475.
No constants are given. Whether binding was seen depends on the method and setting. Binding seen in cells or lysates may run through a third protein. Some results given as binding are weak or reduced against the parent protein; the word gives no strength.

The chains behind the UniProt entries cited, without tags or fusion partners.
UniProt P63168: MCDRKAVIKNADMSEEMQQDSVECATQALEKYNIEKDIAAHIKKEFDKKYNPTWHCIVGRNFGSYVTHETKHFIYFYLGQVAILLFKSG
UniProt O08788: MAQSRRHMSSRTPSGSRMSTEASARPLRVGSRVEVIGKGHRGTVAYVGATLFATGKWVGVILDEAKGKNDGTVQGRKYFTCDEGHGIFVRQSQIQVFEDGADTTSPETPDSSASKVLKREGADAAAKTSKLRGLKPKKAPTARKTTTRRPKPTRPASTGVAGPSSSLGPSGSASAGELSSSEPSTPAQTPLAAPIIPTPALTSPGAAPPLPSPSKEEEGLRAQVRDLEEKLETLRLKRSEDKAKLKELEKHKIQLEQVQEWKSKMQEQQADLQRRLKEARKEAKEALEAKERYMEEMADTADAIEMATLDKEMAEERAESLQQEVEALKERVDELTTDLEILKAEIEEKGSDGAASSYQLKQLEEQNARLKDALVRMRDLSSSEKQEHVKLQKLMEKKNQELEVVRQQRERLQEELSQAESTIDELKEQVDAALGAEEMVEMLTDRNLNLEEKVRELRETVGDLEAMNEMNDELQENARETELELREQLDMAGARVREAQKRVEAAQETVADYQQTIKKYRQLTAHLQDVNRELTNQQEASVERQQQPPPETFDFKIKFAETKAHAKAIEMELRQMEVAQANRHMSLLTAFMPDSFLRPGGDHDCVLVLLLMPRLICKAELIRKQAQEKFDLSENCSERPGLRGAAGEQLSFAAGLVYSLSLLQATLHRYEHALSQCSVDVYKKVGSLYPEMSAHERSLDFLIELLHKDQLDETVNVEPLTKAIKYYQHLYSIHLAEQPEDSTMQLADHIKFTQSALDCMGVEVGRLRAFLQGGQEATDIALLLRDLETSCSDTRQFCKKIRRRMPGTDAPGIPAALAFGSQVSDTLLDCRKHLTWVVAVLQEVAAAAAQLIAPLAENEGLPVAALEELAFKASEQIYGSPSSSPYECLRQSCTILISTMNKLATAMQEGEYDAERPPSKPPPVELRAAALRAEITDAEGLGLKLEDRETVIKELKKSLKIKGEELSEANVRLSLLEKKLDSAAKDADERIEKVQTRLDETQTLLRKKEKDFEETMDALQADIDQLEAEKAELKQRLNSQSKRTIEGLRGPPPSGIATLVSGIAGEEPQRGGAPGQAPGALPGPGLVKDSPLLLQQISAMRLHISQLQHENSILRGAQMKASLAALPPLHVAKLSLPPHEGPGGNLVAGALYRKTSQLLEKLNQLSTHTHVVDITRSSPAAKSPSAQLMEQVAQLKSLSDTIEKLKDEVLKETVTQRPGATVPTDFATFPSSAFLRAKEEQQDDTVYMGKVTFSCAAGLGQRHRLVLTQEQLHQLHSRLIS

Tests used:
[1] = molecular target: T1, nephrin (expressed from the pcDNA3-nephrin plasmid in cultured mouse podocytes, crosslinked and endocytosed) (UniProt Q9QZS7); assay: co-IP
T1 sequence: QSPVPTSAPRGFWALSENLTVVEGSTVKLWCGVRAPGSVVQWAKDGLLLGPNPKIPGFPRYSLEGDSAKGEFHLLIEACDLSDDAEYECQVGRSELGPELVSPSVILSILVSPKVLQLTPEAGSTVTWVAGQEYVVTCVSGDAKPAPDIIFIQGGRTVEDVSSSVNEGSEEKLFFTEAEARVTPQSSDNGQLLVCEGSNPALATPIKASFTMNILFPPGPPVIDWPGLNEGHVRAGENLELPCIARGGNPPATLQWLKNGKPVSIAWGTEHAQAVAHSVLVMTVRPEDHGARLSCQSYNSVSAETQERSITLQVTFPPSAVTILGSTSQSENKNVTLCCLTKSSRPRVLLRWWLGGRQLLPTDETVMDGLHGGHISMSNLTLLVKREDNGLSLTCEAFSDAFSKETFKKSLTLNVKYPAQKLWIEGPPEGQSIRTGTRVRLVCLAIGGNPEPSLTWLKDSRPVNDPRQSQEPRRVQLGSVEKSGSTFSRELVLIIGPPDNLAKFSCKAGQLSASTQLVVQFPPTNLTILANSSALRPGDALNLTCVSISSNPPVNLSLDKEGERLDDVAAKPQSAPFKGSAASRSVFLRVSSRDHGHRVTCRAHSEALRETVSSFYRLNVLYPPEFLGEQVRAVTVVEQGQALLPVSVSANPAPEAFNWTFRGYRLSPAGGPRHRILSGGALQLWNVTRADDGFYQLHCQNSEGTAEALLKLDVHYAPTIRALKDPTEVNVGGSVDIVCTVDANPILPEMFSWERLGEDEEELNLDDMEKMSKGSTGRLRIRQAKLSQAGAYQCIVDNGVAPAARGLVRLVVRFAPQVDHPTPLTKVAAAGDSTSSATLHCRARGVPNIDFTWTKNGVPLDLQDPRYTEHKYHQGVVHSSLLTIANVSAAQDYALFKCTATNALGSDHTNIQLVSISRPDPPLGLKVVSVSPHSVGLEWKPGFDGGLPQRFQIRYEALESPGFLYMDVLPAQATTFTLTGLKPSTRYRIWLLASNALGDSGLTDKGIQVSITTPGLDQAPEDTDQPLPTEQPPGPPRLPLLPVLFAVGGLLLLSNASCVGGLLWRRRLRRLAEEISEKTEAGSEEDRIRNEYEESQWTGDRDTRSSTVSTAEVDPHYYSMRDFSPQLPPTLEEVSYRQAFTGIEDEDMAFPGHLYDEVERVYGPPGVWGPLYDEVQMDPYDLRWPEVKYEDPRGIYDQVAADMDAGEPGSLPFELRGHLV

[2] = molecular target: T2, nephrin (endogenous, mouse glomeruli) (mouse (endogenous in glomeruli of C57BL/6J mice)) (UniProt Q9QZS7); assay: co-IP
T2 sequence: T1 sequence

binding [1]	binding [2]	Substance
binds	binds	Dynll1 (dynein light chain LC8-type 1) (from UniProt P63168 1-89)
binds	binds	DCTN1 (dynactin subunit 1) (from UniProt O08788 1-1281)
